Test results published in patent EP4817688A2, “DEGRADING PKCß1 TO TREAT CANCER” (Mayo Foundation for Medical Education and Research, priority 2020, dated 2022).
For at least one compound, name, drawing or mass did not settle the structure. Some entries share one result that the patent states for a list of compounds.

Amino acid sequences for entries named in this document (tags omitted).
UniProt P05771, whole entry: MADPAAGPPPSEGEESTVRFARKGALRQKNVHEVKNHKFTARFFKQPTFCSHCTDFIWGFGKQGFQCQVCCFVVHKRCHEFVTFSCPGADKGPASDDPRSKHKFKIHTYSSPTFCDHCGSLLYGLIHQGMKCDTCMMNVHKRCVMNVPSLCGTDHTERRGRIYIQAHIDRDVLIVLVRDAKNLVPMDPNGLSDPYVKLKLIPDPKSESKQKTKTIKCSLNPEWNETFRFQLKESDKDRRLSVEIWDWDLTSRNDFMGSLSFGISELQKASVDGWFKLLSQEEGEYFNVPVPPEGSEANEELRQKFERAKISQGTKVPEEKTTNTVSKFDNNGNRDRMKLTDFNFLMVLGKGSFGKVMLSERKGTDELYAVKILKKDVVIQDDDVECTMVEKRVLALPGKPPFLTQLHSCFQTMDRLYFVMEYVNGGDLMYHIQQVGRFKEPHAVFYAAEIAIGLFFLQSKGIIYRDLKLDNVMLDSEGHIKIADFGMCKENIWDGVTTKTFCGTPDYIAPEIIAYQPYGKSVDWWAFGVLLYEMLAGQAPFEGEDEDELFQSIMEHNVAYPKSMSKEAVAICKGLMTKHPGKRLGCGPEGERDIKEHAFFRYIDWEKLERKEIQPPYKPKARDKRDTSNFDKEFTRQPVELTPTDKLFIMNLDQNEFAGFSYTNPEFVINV

Columns and labels:
Type in all cases: cell-based
PKCβ1 [1] = biological target: T1, PKCβ1 (Homo sapiens, UniProt P05771); experiment: western blot of PKCβ1 expression in MCF7AC1 cells; settings: 1 µM, within 72 hours, drugs replenished every 24 hours
T1 construct: western blots showing expression of PKCβ1 in MCF7AC1 cells; endogenous in cells; host or cells: MCF7AC1 (ER+ breast cancer cells)

[2] = tested on: unfolded protein response (UPR) pathway; experiment: western blot of UPR proteins in MDA-MB-231 cells; settings: 1 µM, 1, 8, 24, and 48 hours
PKCβ1 [3] = biological target: T1, PKCβ1; experiment: western blot of PKCβ1 expression in MDAMB231 and BT549 cells; settings: 1 µM, within 72 hours
E2F1 = experiment: western blot of E2F1 expression in MDAMB231 and BT549 cells; settings: 1 µM, up to 72 hours

Compound | PKCβ1 polypeptide degradation (PKCβ1 [1]) | ER-stress induced UPR pathway (CHOP, IRE1α, X-bp1, eIF2α, ATF4, ATF6, PUMA, and NOXA) [2] | PKCβ1 polypeptide degradation / expression (PKCβ1 [3]) | polypeptide levels of E2F1 (E2F1)
CCC(=C(c1ccc(O)cc1)c1ccc(OCCN(C)C(=O)COCCOCCNC(=O)Cc2ccc3c(c2)CN(C2CCC(=O)NC2=O)C3=O)cc1)c1ccccc1 (centres unmarked) [TC-Pr-009, 2-[2-(2-2-[2-(2,6-dioxopiperidin-3-yl)-1-oxo-2,3-dihydro-1H-isoindol-5-yl]acetamidoethoxy)ethoxy]-N-(2-4-[1-(4-hydroxyphenyl)-2-phenylbut-1-en-1-yl]phenoxyethyl)-N-methylacetamide] | rapidly degraded | – | – | –
CC/C(=C(\c1ccc(O)cc1)c1ccc(OCCNC)cc1)c1ccccc1 [ENDX, endoxifen, reference compound] | not observed | no impact | impacted neither | impacted neither
